In data set [1] the target is Sox6 HMG domain (human) (UniProt P35712). The data set is described as follows: EMSA. The conditions noted are these: 10 mM Tris pH 7.4, 75 mM NaCl, 1 mM EDTA, 1 mM DTT, BSA (100 mg/mL [sic]), 0.01% NP40, 5% glycerol, 37 C; 50 nM DNA or nucleosome (Kdapp is not true Kd); recombinant protein; residues 618-697; protein details: N-terminal His (pET28b); label: 32P end label.

Chains of the proteins cited; added tags and fusions are not shown. Residues count along the entry.
UniProt P35712, 618-697: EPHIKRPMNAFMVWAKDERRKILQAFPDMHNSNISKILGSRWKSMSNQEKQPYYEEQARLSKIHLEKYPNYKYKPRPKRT

Data set [2] has the same target. Briefly: hydroxyl radical footprinting. The conditions noted are these: all three sites protected; 10 mM Tris pH 7.4, 75 mM NaCl, 1 mM EDTA, 1 mM DTT, BSA (100 mg/mL [sic]), 0.01% NP40, 5% glycerol, 37 C; 50 nM DNA or nucleosome (Kdapp is not true Kd); recombinant protein; residues 618-697; protein details: N-terminal His (pET28b); label: 32P end label.

For part of these data: For at least one entry, the source does not settle the construct or the ends of the probe. For part of these data: At least one verdict was read from the data and is not stated in words by the source.

Here are results for two sequences from paper PMC10302475.

On to “GCATGATTCTTAAGACCGAGTTCATCCCTTATGTGATGGACCCTATACGCGGCCGCCATCAGAATCCCGGTGCCGAGGCCGCTCAATTGGTCGTAGACAGCTCTAGCACCGCTTAAACGCACGTAGGACAATGGAGGCGCGTTTTAACCGCCAAGGGGATTACTCCCTAGTCTCCAGGCACGTGTCAGATATATACATCGATGTGCATGTATTGAACAGCGACCTTGCCGGTGCCAGTCGGATAGAATTCCGGAC (double strand) [601-SHL0 naked DNA]”, for which, in the data set with Sox6 HMG domain (human) [1], the binding result is “binds”.

With “GCATGATTCTTAAGACCGAGTTCATCCCTTATGTGATGGACCCTATACGCGGCCGCCATCAGAATCCCGGTGCCGAGGCCGCTCAATTGGTCGTAGACAGCTCTAGCACCGCTTAAACGCACGTAGGACAATGGAGGCGCGTTTTGGACAATGGAGGCATTACTCCGGACAATGGAGGCACGTGTCAGATATATACATCGATGTGCATGTATTGAACAGCGACCTTGCCGGTGCCAGTCGGATAGAATTCCGGAC (double strand) [601-SHL024 naked DNA]”, the binding result in the data set with Sox6 HMG domain (human) [1] and with Sox6 HMG domain (human) [2] was “binds” in each case.
